Results are given in words; binding and its absence hold for the method and conditions named. Binding seen in cells or lysates may run through a third protein. A result given as binding can be weak or reduced; the word gives no strength. Tags and fused reporters may be left off the sequences shown.
Target: β-Trcp, Flag-tagged (Trcp-Flag expression vector)
Assay: co-IP; HEK293 cells transfected with the indicated plasmids, 48 h, with or without MG132 for 6-8 h before harvest; lysis in 50 mM Tris-HCl pH 7.4, 150 mM NaCl, 5 mM EDTA, 1% Triton X-100; Flag-M2 beads, 4 °C, 4 h; Western blot with antibodies against the tags

binding: binds
B1: mouse Elongator protein 3, N-terminal Myc (pCS2+-N-Myc) (enzyme, UniProt Q9CZX0-2 1-566)
chain: MRQKRKGAKYVGQGRKGGSGFSEITGDLSPAELMMLTIGDVIKQLVEAHEQGKDVDLNKMKTKTAAKYGLASQPRLVDIIAAVPPHYRKILIPKLKAKPVRTASGIAVVAVMCKPHRCPHISFTGNICIYCPGGPDSDFEYSTQSYTGYEPTSMRAIRARYDPFLQTRHRIEQLKQLGHSVDKVEFIVMGGTFMALPEEYRDYFIRSLHDALSGHTSNNIHEAIKYSERSFTKCVGITIETRPDYCMKRHLSDMLTYGCTRLEIGVQSVYEDVARDTNRGHTVKAACESFHLAKDSGFKVVTHMMPDLPNVGLERDIEQFIEFFENPAFRPDGLKLYPTLVIRGTGLYELWKSGRYRSYSPSDLIELVARILALVPPWTRVYRVQRDIPMPLVSSGVEHGNLRELAFARMKDLGIQCRDVRTREVGIQEIHHRVRPYQVELVRRDYVANGGWETFLSYEDPDQDILIGLLRLRKCSEETFRFELGGGVSIVRELHVYGSVVPVSSRDPTKFQHQGFGMLLMEEAERIAREEHGSGKMAVISGVGTRNYYRKIGYRLQGPYMVKMLK

Source: article PMC4870573
